PubChem BioAssay AID652259, Drosophila RNAi Screening Center | 2013
The deposit covers about 22,000 reagents; below is an unselected part of those that have a named target and a result. In the full data, 233 (1.1%) are marked active. 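Light values are raw, unnormalised plate reads; the ratio scores behind the reporter calls were not deposited.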 Reagents against one gene are numbered here. No sequences are given here. Not stated in the record: the amount of reagent, the time to read-out, the dose of the treatment.

- Purpose: 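Identify new Wingless signalling regulators in fly cells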 (primary screen)
- System: Drosophila clone 8 imaginal disc epithelial cells
- Reagent: long dsRNA against Drosophila genes
- Treatment: pathway stimulated by co-transfected Wingless expression plasmid
- Read-out: 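Dual luciferase reads per well after Wingless plasmid stimulation: reporter firefly light and Renilla control light; activity is firefly divided by Renilla, a ratio not deposited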
- Direction: firefly reporter light: higher = more Wg reporter light, before normalisation; Renilla control light: higher = more transfected or surviving cells
- Hit rule: 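a knock-down is a candidate when at least two out of four statistical tests show it departing from its plate mean; one test alone signals a weak candidate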
- Meaning of the calls: active = candidate regulator (raises or lowers reporter); inactive = not a candidate

CG34210 | firefly reporter light, replicate 1: 4441; firefly reporter light, replicate 2: 10146; Renilla control light, replicate 1: 810; Renilla control light, replicate 2: 2252; outcome: inactive
CG14634 | firefly reporter light, replicate 1: 16436; Renilla control light, replicate 1: 13811; outcome: inactive
CG11523 | firefly reporter light, replicate 1: 5097; Renilla control light, replicate 1: 2425; outcome: inactive
rumi | firefly reporter light, replicate 1: 3222; firefly reporter light, replicate 2: 7045; Renilla control light, replicate 1: 900; Renilla control light, replicate 2: 1321; outcome: inactive
CG15564 | firefly reporter light, replicate 1: 7019; Renilla control light, replicate 1: 2953; outcome: inactive
Roe1 | firefly reporter light, replicate 1: 12080; Renilla control light, replicate 1: 3149; outcome: inactive

Records listed so far whose gene name starts with C or c:
CG34210 | firefly reporter light, replicate 1: 4441; firefly reporter light, replicate 2: 10146; Renilla control light, replicate 1: 810; Renilla control light, replicate 2: 2252; outcome: inactive
CG14634 | firefly reporter light, replicate 1: 16436; Renilla control light, replicate 1: 13811; outcome: inactive
CG11523 | firefly reporter light, replicate 1: 5097; Renilla control light, replicate 1: 2425; outcome: inactive
CG15564 | firefly reporter light, replicate 1: 7019; Renilla control light, replicate 1: 2953; outcome: inactive

The listing continues.
Cdc23 | firefly reporter light, replicate 1: 14736; Renilla control light, replicate 1: 4617; outcome: inactive
p | firefly reporter light, replicate 1: 10124; Renilla control light, replicate 1: 3168; outcome: inactive
BG642163 #1 | firefly reporter light, replicate 1: 4505; firefly reporter light, replicate 2: 6400; Renilla control light, replicate 1: 1285; Renilla control light, replicate 2: 2118; outcome: inactive
BG642163 #2 | firefly reporter light, replicate 1: 2946; firefly reporter light, replicate 2: 8560; Renilla control light, replicate 1: 1232; Renilla control light, replicate 2: 2780; outcome: inactive
CG14718 | firefly reporter light, replicate 1: 13517; Renilla control light, replicate 1: 3547; outcome: inactive
sau | firefly reporter light, replicate 1: 11633; Renilla control light, replicate 1: 2569; outcome: inactive
